This is one part of the list.

The target in this assay is T1, OsSMF1 (Oryza sativa, UniProt Q6ZLB0 1-436).
T1 sequence: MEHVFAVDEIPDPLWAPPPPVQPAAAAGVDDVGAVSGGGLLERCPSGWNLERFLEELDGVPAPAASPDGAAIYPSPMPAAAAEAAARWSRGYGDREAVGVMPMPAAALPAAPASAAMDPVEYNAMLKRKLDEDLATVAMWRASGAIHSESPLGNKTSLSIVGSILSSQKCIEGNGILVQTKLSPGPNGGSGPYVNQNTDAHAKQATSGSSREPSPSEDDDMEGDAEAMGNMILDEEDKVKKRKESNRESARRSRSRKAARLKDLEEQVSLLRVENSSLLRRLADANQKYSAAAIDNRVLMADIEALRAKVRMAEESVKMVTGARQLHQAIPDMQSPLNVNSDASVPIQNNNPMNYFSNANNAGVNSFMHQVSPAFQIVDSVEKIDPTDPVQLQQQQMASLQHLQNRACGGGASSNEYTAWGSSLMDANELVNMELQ
Briefly: protein-binding microarray (RPBM); PBS, 2% BSA, 51.3 ng/ul salmon testes DNA, 50 uM zinc acetate, 200 nM TF, 25 C, 1 h; high values mean tight binding. Particulars: protein: recombinant; tags: N-terminal polyhistidine and DsRed monomer fusion (pET32a); chain copies: 2; label: CyDye5-dUTP incorporated in the synthesized complementary strand; 3' TTTTT single-stranded linker to array surface; dsDNA, one strand shown. An outline of the steps: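 Binding signal is defined as the fluorescence intensity of each feature in arbitrary units, read on an Axon 4000B scanner. Transcription factors with N-terminal polyhistidine and DsRed fusions came from E. coli BL21-CodonPlus and were purified on Ni–NTA. They were incubated at 200 nM for 1 h at 25 °C on a custom Agilent array that had been made double-stranded with Cy5-dUTP, with 50 µM zinc acetate present, and the array was washed.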
Take “GCATAATTTGCATAGAAATCGCGAGACGAATCTCTAATTACGGAGTCACCTAGTGCAG”: the binding signal was 38300 fluorescence intensity (a.u.). Take “GGGTCACTAGCCCATGAAATGAACTCGAGCACTTGATCAGCGGAGTCACCTAGTGCAG”: the binding signal was 3310 fluorescence intensity (a.u.).

As to “CTGTCTGCTCAGTTTGGTGGGTTCTGCTCACCAGTCTCCCCGGAGTCACCTAGTGCAG”, the binding signal is 3420 fluorescence intensity (a.u.). Consider “GGACAGTTTTGGCGTGCCACGTAGTCTTATCTCTAGTGCACGGAGTCACCTAGTGCAG”, for which the binding signal was 8670 fluorescence intensity (a.u.).

For “GCTTGCTTGCTTGCATCCTCCTCACATTCACCACGAGGTTCGGAGTCACCTAGTGCAG”, the binding signal was 3670 fluorescence intensity (a.u.).

With “TCGGGTTTTACAATTTTATGACATGGACTCCTACGCCATCCGGAGTCACCTAGTGCAG”, the binding signal is 6410 fluorescence intensity (a.u.). Next, “CTGACCCGGGGTGGAGTGGAGACGTGGAGTCGTTGGTGTTCGGAGTCACCTAGTGCAG”: 4130 fluorescence intensity (a.u.); “ACCATAAAATGTTTAGGTGTTTCAACCGTGATTGTCTTCACGGAGTCACCTAGTGCAG”: 20200 fluorescence intensity (a.u.); “AAATTTCCGTGCGTGACCCGTCATCTGCTAGTACTTGCTGCGGAGTCACCTAGTGCAG”: 5470 fluorescence intensity (a.u.). Next, “GCGTACGTCGGCATTGCAACGTGTGGCGCCAGTGGCGATCCGGAGTCACCTAGTGCAG”: 23200 fluorescence intensity (a.u.). In the case of “CCCCGGCCCCACCCGTCAGTGACGTGGAGGAATCCCCAAACGGAGTCACCTAGTGCAG”, the binding signal is 11800 fluorescence intensity (a.u.). With “AGCACATGACGTCGGATGAAAATTTCTCGATCTTGTGCGTCGGAGTCACCTAGTGCAG” the figure was 10400 fluorescence intensity (a.u.); with “AATTCTCTCTCTCTACAGTCTAACACACATGCTGACAAAGCGGAGTCACCTAGTGCAG”, 3770 fluorescence intensity (a.u.). With “CCATCTACAGCCGAACTGACGTGCAACCTGGTAGCTCGCACGGAGTCACCTAGTGCAG” the figure was 5400 fluorescence intensity (a.u.). As to “GCCTTAGTAATTTTGGTAAACTAATTGTTGATGTCATGTTCGGAGTCACCTAGTGCAG”, the binding signal is 4350 fluorescence intensity (a.u.). With “GGATGTCACCAAGGGGCCGATCAAGATCGAAGTAAGCTAGCGGAGTCACCTAGTGCAG”, the binding signal is 6300 fluorescence intensity (a.u.).

Regarding “TAGCTTCGAGATGATGATGTGGTGGCCTATCTGATCCGCCCGGAGTCACCTAGTGCAG”, the binding signal is 4840 fluorescence intensity (a.u.). On to “CTACGTTCTACAGACGATCGATGGCTTCTGTCACTCTTCTCGGAGTCACCTAGTGCAG”, for which the binding signal is 23900 fluorescence intensity (a.u.). For the sequence “AGAGAGCAACACGTGCGTGGACAAGTAGTGTACTGTAGCGCGGAGTCACCTAGTGCAG”, the binding signal was 6000 fluorescence intensity (a.u.). With “ACCTTCATTGGATCTGCCTCCCTGCAAGCCTCTGCCTCAACGGAGTCACCTAGTGCAG” the figure was 43300 fluorescence intensity (a.u.); with “TTTAAATTTGGATGAACCCATCGAAATTTCAGACATCTACCGGAGTCACCTAGTGCAG”, 23900 fluorescence intensity (a.u.). Next, “TACACTCTTAGGTTCTGTATGCCTATTTTGGATCTTTCACCGGAGTCACCTAGTGCAG”: 15000 fluorescence intensity (a.u.); “GCTCCTCGCGCTGCTCATCATCCTCCCCTCCACGCCGCCGCGGAGTCACCTAGTGCAG”: 4730 fluorescence intensity (a.u.); “GCGTCTCCCGCCGCGGTGACCTCACCTCTCTTCCTCGCCGCGGAGTCACCTAGTGCAG”: 3620 fluorescence intensity (a.u.). Regarding “AATTAGCTAGTCTACCATGCAAACACATCACGTTGCTGCCCGGAGTCACCTAGTGCAG”, the binding signal was 3750 fluorescence intensity (a.u.). Next, “CAGGCTGCCCAGCTCTGACATGTCGTCCTCACTTGCCGCCCGGAGTCACCTAGTGCAG”: 5980 fluorescence intensity (a.u.); “GGCCATGTTGAATGACGCGTTGCTCTCCCTACTCTACGGACGGAGTCACCTAGTGCAG”: 49100 fluorescence intensity (a.u.); “AATCCTACATGCCAAATCACCTCATCTTATCTCATCTATTCGGAGTCACCTAGTGCAG”: 3430 fluorescence intensity (a.u.). For “AAATTAGAACGATGTGACGGAAAAGTTAGAAGTTTGTGTGCGGAGTCACCTAGTGCAG”, the binding signal was 3200 fluorescence intensity (a.u.). Take “CTCCAGCTCTCGCCTCTCGCCTCGTCCTTGTTCGTCATCGCGGAGTCACCTAGTGCAG”: the binding signal is 6300 fluorescence intensity (a.u.).

For the sequence “TACTTTATCAAATCGCAATGTAACTATTGGTCACTCTATCCGGAGTCACCTAGTGCAG”, the binding signal was 3170 fluorescence intensity (a.u.). Take “CATTACCGACTGACTACTAAATTTCGAGTCCTATTGATATCGGAGTCACCTAGTGCAG”: the binding signal is 3160 fluorescence intensity (a.u.).

For the sequence “TGACTAAATCAATATATGATCATCCATTGCGTTGGCATCACGGAGTCACCTAGTGCAG”, the binding signal is 3700 fluorescence intensity (a.u.). With “GGCAAATCGGTAATTGCCATGTCACAAGAGTGGCAAATAGCGGAGTCACCTAGTGCAG” the figure was 8900 fluorescence intensity (a.u.); with “CGCAGCCGCTGTCGTCGCGTCACCGTCTCCAAGCGCCTCTCGGAGTCACCTAGTGCAG”, 9390 fluorescence intensity (a.u.).

In the case of “TCAGTCGTCATTCGTCAAGCTTAATGATGACAGGAAAATCCGGAGTCACCTAGTGCAG”, the binding signal was 3580 fluorescence intensity (a.u.).

Turning to “ATCAAACTACACAGTGGCAAGTGCTCCTTCCAGCTATATACGGAGTCACCTAGTGCAG”, the binding signal was 3340 fluorescence intensity (a.u.).

Turning to “GCCGTCGATCCAAGTCCACGCCGGCACGCCGGCGGCGGCTCGGAGTCACCTAGTGCAG”, the binding signal is 4480 fluorescence intensity (a.u.). With “AAATTACCATTGTTTAGGTGTATATGTGGCAAGTTTGTTACGGAGTCACCTAGTGCAG” the figure was 4160 fluorescence intensity (a.u.); with “GGAGTTGGCCAGGTGCGCAGGCATGGTCTACGTCATCACACGGAGTCACCTAGTGCAG”, 4500 fluorescence intensity (a.u.); with “AAGCTCCTTCTGTCCGCCGCGTGGCGTACATCCAAGCGGTCGGAGTCACCTAGTGCAG”, 5120 fluorescence intensity (a.u.). With “AGCTACGATACATGATGTACGTGTCAGGATACAAATCCTTCGGAGTCACCTAGTGCAG” the figure was 3270 fluorescence intensity (a.u.).

The values above are taken from PMC7819943, “Rice protein-binding microarrays: a tool to detect cis-acting elements near promoter regions in rice”.
